“And” between values parts separate entries of the source, which are not always exact repeats. Equal entries are not always repeated. The inconclusive results got no clear call from the source; some entries with a clear call stand among them for comparison. Potencies of inconclusive entries are doubtful fits and often do not repeat. The source made the active and inactive calls. Calls follow the shape of the dose curve; as a rule, active = well fitted inhibition curve with a large enough effect in the repeat runs; inconclusive = weak or mixed curves; inactive = no such curve, though single readings can be large or run the other way.
What follows are compounds tested against Cytochrome P450 2D6 (Homo sapiens) (UniProt P10635) (assay: Cytochrome P450 Family 2 Subfamily D Member 6 (CYP2D6) small molecule antagonists: luciferase reporter qHTS assay (AID 1671196; also: nearly all actives have a fitted effect of over 50% in size)). Settings: P450-Glo CYP2D6 enzyme assay, luciferin luminescence, 1 h; series mostly up to 115 µM.
Outline: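 Test chemicals meet CYP2D6 plus proluciferin substrate (10 min, RT); NADPH regenerating solution then drives turnover for 1 h. Detection reagent halts the reaction; luminescence measured after 20 min.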
Potency is read from the fitted curve at half-maximal effect.

Protein sequences, listed by entry. Tags and fused reporters are not part of them.
UniProt P10635, whole entry, looked up: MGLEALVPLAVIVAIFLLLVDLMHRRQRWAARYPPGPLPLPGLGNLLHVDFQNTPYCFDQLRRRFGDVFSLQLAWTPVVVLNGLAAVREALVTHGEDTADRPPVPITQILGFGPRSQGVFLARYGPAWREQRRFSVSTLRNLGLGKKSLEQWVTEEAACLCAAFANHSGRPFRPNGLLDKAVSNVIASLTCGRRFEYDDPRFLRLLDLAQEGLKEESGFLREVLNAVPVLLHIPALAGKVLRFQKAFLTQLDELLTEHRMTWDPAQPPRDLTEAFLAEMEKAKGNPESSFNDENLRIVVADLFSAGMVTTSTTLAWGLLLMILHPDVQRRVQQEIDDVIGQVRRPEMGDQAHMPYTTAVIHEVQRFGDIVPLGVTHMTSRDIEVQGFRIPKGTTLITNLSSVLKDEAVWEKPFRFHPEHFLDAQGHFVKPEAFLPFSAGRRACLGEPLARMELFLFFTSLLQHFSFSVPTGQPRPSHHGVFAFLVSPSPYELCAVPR

Question: Which Potency does the source give for `NC(=O)CC[C@@H]1NC(=O)[C@H](Cc2ccccc2)NC(=O)[C@H](Cc2ccc(O)cc2)NC(=O)CCSSC[C@@H](C(=O)N2CCC[C@H]2C(=O)N[C@@H](CCCN=C(N)N)C(=O)NCC(N)=O)NC(=O)[C@H](CC(N)=O)NC1=O` here?
Answer: Its Potency is “inactive”.

Question: How did the Potency turn out when `CC(C)NNC(=O)c1ccncc1` was run?
Answer: Its Potency is inconclusive: 34.7 µM [inhibitor, partial curve, poor fit].

Question: How did the Potency turn out when `Cc1cccc(O)c1N` was run?
Answer: Its Potency is active: 45.3 µM.

Question: For `O=[N+]([O-])c1ccccc1Nc1ccccc1`, which Potency is on record?
Answer: Its Potency is inconclusive: 31.5 µM [inhibitor, partial curve].

Question: For `Oc1cc2c(cc1O)[C@H]1c3ccc(O)c(O)c3OC[C@@]1(O)C2`, which Potency is on record?
Answer: The Potency was active: 36 µM.

Question: Which Potency does the source give for `C1C[C@@H]2[C@H]3CC[C@H](C3)[C@@H]2C1` here?
Answer: Its Potency is inconclusive: 40 µM [inhibitor, partial curve].

Question: Which Potency does the source give for `CC(C)(C(=O)c1cccnc1)c1cccnc1` here?
Answer: Its Potency is inconclusive: 38.9 µM [inhibitor, single point].

Question: `COC(=O)c1ccccc1C(=O)O` was tested. Which Potency did it give?
Answer: Its Potency is “inactive”.

Question: Which Potency does the source give for `O=C(O)c1cccc([N+](=O)[O-])c1` here?
Answer: Its Potency is inconclusive: 62.9 µM [inhibitor, partial curve, poor fit].

Question: How did the Potency turn out when `Cc1ncc(CO)c(CO)c1O` was run?
Answer: Its Potency is inconclusive: 63.3 µM [inhibitor, partial curve] and inconclusive: 35.6 µM [inhibitor, partial curve].
